PubChem BioAssay AID720504 (National Center for Advancing Translational Sciences (NCATS), 2013)
Screen size: about 360,000 compounds; about 10,000 (2.8%) were called active. Inconclusive results, whose numbers are uncertain, are shown with a selection of clear calls. Calls come from the whole dose curve; as a rule, active = well fitted inhibition curve with a large enough effect; inconclusive = small, poorly fitted or top-dose-only effect; inactive = flat fitted curve, though single readings scatter. Potencies of inconclusive entries are doubtful fits and often do not repeat.

Amino acid sequences for entries named in this document (tags omitted).
UniProt P53350, whole entry, looked up: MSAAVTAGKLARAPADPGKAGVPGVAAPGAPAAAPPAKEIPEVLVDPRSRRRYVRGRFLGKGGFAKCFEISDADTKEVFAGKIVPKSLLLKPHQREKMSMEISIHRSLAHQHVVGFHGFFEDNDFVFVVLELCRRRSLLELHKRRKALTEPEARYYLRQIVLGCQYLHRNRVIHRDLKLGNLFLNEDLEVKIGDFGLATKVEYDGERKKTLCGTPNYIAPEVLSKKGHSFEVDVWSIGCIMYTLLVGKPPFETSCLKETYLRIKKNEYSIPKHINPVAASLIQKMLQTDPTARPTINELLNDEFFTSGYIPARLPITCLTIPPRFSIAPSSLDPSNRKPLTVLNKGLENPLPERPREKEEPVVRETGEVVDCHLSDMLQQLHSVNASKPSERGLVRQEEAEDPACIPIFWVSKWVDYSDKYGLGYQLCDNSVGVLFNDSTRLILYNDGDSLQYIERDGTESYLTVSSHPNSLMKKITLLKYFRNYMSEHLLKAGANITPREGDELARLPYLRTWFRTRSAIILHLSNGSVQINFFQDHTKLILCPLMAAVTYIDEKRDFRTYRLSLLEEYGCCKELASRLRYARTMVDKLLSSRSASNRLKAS

What follows are compounds tested against Serine/threonine-protein kinase PLK1 (Homo sapiens) (UniProt P53350) (assay: qHTS for Inhibitors of PLK1-PDB (polo-like kinase 1 - polo-box domain): Primary Screen). Conditions: Plk1 PBD binding of FITC phosphopeptide, fluorescence polarization.
% is set by controls: 0 for no effect and ±100 for the full control effect; potency is the fitted concentration of half-maximal effect.
Note: nearly all actives have a fitted effect of over 65% in size.
Throughout, for max response, negative = inhibition: series mostly up to about 57 µM.

Row | Structure (SMILES) | Potency | max response, negative = inhibition
1 | O=C(Oc1ccc(Br)cc1C(=S)N1CCOCC1)c1ccc([N+](=O)[O-])cc1[N+](=O)[O-] | active: 5.97 µM | 
2 | Cc1ccc(NC(=O)C2CCC(CNC(=O)[C@@H]3Cc4ccccc4CN3)CC2)c(C)c1 (stereo not given in full) |  | inconclusive: -31.6% [inhibitor]
3 | COc1ccc(C2CC(=O)Oc3c2c(=O)n(C)c2ccccc32)c(OC)c1OC (stereo not given) | inconclusive: 29.9 µM [inhibitor, partial curve] | 
4 | O=C(NC1CCCCCC1)C(=S)NCc1ccccc1 | active: 21.2 µM | 
5 | Cc1ccccc1NC(=O)Nc1ccccc1C(N)=O | active: 26.7 µM | 
6 | N#C/C(=C/c1ccc(OCc2ccc(C(=O)O)cc2)cc1)C(=O)Nc1ccccc1 | inconclusive: 21.2 µM [inhibitor, partial curve] | 
7 | COc1ccc(-n2c(=S)[nH]c3ccccc32)cc1 | inconclusive: 26.7 µM [inhibitor, partial curve] | 
8 | O=S(=O)(c1ccc(=S)[nH]c1)N1CCOCC1 | active: 7.52 µM | 
9 | CC(=O)c1cccc(OCc2cc(C(=O)N3C[C@@H](C)O[C@@H](C)C3)no2)c1 | inconclusive: 23.8 µM [inhibitor, single point] | 
10 | COc1ccc(NC(=O)CN(C)C(=O)C(Sc2ccccc2)c2ccccc2)cc1 (stereo not given) | inconclusive: 29.9 µM [inhibitor, single point] | 
11 | Cc1ccc(S(=O)(=O)N2CCN(C(=O)CN3C(=O)NC4(CCOc5ccccc54)C3=O)CC2)cc1 (stereo not given) |  | inactive: -2.18%
12 | Cc1c(C(=O)O)sc2ncnc(N3CCCCC3C)c12 (stereo not given) |  | inactive: -8.47%
13 | O=C(NCCC(=O)N1CCC2(CC1)NCCc1[nH]cnc12)c1ccc(Br)cc1 |  | inactive: 0.341%
14 | O=c1cc(-c2ccccc2Cl)oc2ccc([N+](=O)[O-])c(O)c12 | inconclusive: 29.9 µM [inhibitor, partial curve] | 
15 | CN(Cc1ccncc1)C1CC(=O)N(c2ccc(F)cc2)C1=O (stereo not given) |  | inactive: -9.45%
16 | COc1ccc(C(=O)NC(=S)N(C)Cc2ccccc2)cc1Br |  | inactive: -1.24%
17 | CCCCCOC(=O)Nc1ccc(S(=O)(=O)Nn2cnnc2)cc1 | inconclusive: 37.7 µM [inhibitor, single point] | 
18 | CCOC(=O)c1cn[nH]c1N | inconclusive: 29.9 µM [inhibitor, partial curve] | 
19 | O=C(NCc1ccco1)c1ccc(S(=O)(=O)N2CCOCC2)cc1 | inconclusive: 26.7 µM [inhibitor, partial curve] | 
20 | Cc1ccccc1-n1c(C)cc(/C=C(\C#N)C(=O)NCC2CCCO2)c1C (stereo not given) |  | inactive: -8.95%

Another view of part of the listing above:
COc1ccc(-n2c(=S)[nH]c3ccccc32)cc1
  Potency: inconclusive: 26.7 µM [inhibitor, partial curve]
O=S(=O)(c1ccc(=S)[nH]c1)N1CCOCC1
  Potency: active: 7.52 µM
